# According to the supplement of paper PMC11732987, “Enantioselective OTUD7B fragment discovery through chemoproteomics screening and high-throughput optimisation” (Communications Chemistry, 2025):
# Amino acid sequences for entries named in this document (tags omitted). A change or cut given only in a name is not applied to a line headed by its entry. Residues count along the entry.
# UniProt Q9BTC0, 495-518: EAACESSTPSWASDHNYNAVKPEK
# UniProt Q9BU89: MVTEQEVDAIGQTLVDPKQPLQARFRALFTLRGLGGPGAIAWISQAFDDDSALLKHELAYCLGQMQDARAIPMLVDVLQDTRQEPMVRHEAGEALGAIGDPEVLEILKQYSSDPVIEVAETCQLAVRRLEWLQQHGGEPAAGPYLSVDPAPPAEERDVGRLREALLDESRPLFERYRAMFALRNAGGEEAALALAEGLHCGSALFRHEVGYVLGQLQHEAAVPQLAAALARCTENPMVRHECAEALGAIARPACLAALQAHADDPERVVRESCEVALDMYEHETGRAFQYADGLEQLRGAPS
# UniProt Q12882, 656-678: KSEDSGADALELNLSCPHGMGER
# UniProt Q9UNQ2: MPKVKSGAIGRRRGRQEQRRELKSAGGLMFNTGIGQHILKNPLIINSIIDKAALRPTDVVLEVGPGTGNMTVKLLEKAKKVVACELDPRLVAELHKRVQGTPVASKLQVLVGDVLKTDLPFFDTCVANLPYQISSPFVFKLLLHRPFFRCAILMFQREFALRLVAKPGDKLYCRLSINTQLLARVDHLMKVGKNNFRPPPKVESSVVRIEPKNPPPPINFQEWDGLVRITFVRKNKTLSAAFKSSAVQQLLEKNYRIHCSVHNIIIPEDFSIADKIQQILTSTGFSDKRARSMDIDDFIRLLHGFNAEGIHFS
# UniProt Q9NSV4, whole entry, looked up: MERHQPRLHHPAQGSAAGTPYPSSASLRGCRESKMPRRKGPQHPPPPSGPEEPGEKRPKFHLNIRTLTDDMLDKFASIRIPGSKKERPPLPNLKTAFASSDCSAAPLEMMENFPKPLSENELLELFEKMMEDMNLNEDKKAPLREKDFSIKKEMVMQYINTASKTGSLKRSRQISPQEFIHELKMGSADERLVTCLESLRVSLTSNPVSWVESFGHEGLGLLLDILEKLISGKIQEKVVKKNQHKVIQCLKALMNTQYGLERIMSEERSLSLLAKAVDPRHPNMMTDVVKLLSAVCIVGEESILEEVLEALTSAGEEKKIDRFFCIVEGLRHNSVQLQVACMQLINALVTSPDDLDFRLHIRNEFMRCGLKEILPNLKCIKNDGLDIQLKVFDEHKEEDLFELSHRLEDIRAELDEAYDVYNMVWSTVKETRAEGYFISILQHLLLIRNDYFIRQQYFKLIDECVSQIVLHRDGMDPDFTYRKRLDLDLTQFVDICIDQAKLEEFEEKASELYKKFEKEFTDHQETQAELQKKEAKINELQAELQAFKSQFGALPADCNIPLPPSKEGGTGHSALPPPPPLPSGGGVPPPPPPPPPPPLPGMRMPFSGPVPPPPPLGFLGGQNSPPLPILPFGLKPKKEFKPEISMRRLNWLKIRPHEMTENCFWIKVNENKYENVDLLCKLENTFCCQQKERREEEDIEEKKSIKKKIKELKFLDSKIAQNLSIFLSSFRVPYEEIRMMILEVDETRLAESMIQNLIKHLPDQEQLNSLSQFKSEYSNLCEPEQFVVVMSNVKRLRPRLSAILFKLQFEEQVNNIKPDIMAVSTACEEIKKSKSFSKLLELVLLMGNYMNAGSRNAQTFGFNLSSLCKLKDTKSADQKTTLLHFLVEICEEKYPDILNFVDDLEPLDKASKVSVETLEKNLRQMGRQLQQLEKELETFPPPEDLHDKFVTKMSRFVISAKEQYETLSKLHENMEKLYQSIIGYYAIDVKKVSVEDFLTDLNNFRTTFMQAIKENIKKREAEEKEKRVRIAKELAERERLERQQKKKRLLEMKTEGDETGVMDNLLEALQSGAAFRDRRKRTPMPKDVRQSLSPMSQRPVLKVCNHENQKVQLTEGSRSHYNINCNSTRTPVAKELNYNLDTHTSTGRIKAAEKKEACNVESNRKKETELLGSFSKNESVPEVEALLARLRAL
# UniProt Q92785: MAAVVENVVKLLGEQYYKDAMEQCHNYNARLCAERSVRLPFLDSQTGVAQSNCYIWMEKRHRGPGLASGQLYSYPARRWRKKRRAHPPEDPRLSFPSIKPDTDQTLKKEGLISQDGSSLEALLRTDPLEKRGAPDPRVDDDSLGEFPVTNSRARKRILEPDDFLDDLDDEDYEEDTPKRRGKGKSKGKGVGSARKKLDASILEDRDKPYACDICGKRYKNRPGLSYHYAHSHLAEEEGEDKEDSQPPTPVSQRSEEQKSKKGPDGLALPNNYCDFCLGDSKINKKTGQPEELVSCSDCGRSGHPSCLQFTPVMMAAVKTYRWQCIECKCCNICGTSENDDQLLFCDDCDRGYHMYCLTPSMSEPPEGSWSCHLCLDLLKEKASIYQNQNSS
# UniProt Q96N67: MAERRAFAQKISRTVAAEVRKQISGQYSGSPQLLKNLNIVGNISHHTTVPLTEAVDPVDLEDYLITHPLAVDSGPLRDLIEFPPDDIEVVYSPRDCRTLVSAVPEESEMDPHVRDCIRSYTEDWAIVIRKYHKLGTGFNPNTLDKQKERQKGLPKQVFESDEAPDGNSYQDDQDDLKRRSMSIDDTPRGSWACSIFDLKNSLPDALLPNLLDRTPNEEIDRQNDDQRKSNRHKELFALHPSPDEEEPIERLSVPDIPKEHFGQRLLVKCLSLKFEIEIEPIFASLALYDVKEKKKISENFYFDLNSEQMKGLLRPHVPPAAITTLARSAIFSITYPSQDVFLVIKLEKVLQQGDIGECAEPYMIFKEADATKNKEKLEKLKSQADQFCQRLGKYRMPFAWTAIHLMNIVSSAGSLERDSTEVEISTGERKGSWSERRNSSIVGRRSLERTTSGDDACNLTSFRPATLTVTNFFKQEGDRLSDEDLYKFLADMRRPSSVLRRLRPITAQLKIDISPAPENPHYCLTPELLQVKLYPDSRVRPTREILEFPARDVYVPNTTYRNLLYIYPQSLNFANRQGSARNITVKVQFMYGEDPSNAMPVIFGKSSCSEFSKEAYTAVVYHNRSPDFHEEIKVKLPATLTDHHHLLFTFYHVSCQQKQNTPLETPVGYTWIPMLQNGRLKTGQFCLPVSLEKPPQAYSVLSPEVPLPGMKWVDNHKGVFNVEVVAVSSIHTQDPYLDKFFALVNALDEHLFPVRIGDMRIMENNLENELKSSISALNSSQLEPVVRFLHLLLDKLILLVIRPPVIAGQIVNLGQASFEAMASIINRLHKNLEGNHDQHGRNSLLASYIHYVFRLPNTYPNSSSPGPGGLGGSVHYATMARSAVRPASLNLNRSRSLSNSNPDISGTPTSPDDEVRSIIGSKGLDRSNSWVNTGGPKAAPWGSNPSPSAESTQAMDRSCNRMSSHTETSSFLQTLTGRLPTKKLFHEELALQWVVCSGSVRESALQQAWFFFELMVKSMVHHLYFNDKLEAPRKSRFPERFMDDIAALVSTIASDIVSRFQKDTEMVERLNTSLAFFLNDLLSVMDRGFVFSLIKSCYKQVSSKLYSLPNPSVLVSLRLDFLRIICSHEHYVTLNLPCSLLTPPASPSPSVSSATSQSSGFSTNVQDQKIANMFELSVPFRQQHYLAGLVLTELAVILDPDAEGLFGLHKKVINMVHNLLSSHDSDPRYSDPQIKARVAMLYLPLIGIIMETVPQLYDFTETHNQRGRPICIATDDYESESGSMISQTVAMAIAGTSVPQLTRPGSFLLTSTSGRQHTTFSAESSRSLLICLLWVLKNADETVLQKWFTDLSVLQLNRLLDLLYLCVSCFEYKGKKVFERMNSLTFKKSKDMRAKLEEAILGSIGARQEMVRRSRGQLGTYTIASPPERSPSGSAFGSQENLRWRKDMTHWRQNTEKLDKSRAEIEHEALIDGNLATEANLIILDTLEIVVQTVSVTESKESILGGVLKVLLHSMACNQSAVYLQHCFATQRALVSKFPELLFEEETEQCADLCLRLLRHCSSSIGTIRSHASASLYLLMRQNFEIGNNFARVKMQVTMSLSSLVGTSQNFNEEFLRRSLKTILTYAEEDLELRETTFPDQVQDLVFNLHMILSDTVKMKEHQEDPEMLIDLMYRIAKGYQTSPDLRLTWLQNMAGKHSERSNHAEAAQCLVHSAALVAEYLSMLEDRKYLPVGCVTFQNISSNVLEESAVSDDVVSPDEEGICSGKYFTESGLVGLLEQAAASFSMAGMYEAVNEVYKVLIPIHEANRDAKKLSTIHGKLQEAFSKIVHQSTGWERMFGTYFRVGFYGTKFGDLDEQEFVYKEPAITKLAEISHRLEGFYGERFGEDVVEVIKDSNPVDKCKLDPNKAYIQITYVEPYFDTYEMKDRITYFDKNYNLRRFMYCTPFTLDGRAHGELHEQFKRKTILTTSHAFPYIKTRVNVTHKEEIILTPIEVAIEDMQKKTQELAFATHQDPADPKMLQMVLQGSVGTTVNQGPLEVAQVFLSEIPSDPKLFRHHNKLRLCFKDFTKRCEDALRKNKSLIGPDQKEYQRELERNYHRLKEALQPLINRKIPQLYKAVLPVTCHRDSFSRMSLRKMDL
# UniProt Q05193: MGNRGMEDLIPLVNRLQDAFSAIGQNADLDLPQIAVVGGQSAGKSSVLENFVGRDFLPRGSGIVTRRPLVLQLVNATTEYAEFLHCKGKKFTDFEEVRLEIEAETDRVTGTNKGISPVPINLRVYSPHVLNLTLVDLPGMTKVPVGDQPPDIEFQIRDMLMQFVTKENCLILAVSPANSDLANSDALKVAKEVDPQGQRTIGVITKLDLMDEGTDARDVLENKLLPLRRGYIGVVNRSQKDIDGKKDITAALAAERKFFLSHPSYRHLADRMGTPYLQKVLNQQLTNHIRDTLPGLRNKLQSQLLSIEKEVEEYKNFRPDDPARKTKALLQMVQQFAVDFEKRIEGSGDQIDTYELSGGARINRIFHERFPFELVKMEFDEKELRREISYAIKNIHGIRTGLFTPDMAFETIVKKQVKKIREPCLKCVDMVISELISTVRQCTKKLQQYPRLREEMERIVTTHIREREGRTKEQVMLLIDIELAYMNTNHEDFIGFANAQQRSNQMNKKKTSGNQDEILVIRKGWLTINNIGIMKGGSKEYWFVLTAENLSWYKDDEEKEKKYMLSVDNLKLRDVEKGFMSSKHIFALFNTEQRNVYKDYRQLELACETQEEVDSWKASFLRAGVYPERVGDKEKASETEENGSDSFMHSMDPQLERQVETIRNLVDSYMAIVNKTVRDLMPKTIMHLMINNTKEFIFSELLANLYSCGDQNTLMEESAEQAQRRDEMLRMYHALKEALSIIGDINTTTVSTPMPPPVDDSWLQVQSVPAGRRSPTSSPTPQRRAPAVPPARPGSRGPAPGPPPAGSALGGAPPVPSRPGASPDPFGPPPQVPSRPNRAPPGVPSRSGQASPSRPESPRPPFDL
# UniProt O60231: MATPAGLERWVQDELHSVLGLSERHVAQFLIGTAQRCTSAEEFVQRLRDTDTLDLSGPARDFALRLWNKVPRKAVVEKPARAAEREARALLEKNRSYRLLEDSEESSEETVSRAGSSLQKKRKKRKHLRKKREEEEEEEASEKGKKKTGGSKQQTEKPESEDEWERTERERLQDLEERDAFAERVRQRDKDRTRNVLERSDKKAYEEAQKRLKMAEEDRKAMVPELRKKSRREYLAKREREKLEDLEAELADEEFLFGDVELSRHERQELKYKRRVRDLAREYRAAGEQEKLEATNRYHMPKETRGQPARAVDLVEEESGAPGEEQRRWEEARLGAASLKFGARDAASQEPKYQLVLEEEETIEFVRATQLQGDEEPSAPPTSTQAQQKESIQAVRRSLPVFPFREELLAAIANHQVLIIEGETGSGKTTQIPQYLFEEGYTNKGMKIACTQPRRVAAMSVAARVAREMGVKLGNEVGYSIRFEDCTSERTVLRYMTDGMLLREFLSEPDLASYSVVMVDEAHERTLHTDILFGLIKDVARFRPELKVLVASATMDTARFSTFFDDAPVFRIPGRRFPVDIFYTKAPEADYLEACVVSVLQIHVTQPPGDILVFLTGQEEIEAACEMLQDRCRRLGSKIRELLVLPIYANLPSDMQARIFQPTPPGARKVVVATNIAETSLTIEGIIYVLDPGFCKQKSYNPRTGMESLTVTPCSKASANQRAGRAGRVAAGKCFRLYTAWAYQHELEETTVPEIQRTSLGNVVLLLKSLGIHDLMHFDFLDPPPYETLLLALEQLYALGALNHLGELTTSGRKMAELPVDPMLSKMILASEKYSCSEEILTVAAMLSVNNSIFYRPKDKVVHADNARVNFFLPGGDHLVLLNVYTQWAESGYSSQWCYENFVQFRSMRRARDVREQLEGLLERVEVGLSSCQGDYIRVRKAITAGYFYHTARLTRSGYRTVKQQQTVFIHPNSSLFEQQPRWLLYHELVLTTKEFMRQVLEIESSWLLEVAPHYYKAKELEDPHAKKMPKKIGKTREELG
# Some of the results follow. The data scatter; read single values as rough.
# Columns and labels:
# [1] = compound: ClCC(=O)N[C@@H]1CCCc2ccccc12; assay: log2 mean competition ratio of IA-DTB cysteine labelling (DMSO/compound) (log2 ratio); higher = stronger cysteine engagement by compound; conditions: treatment time: 4 h, cell line lysate: HEK293T
# Protocol: (§1)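 IA-DTB competitive cysteine chemoproteomics in HEK293T RIPA lysate. Lysates were treated with compound 29 or 30 at 50 or 200 µM for 4 h, then IA-DTB (500 µM, 1 h), trypsin-digested, NeutrAvidin-enriched and analysed by diaPASEF. Competition ratio = intensity DMSO / intensity compound (n=4 treated, n=64 DMSO); binding: mean log2 CR ≥ 1 and p ≤ 0.05 plus QC filters. Target is the cysteine site.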
# [2] = compound: ClCC(=O)N[C@H]1CCCc2ccccc12; assay: as above; conditions: treatment time: 4 h, cell line lysate: HEK293T
# Protocol: as §1
Target,log2 mean competition ratio ([1]; 50 µM),log2 mean competition ratio ([1]; 200 µM),log2 mean competition ratio ([2]; 200 µM),log2 mean competition ratio ([2]; 50 µM)
DIDO1 C498 (UniProt Q9BTC0),-0.0718,-0.209,,
DICER1 C1553 (UniProt Q9UPY3),-0.131,0.0545,,
DHCR24 C252 (UniProt Q15392),-0.00836,-0.178,,
DOHH C273 (UniProt Q9BU89),0.353,0.402,,
DHX29 C749 (UniProt Q7Z478),0.401,0.0518,,
DPYD C671 (UniProt Q12882),-0.369,0.0126,,
DIXDC1 C600,0.124,0.0878,,
DHX40 C153 (UniProt Q8IX18),0.149,0.536,,
DNMBP C1434 (UniProt Q6XZF7),0.0426,0.255,,
DHX40 C573 (UniProt Q8IX18),0.217,-0.0569,,
DIMT1 C84 (UniProt Q9UNQ2),-0.178,-0.179,,
DIAPH3 C1125 (UniProt Q9NSV4),0.179,0.158,,
DPF2 C24 (UniProt Q92785),0.329,0.057,,
DOCK7 C2125 (UniProt Q96N67),0.247,-0.487,,
DNM1 C424 (UniProt Q05193),0.258,-0.485,,
DNAJC14 C52 (UniProt Q6Y2X3),-0.0999,-0.107,,
DOP1A C2442 (UniProt Q5JWR5),0.204,-0.13,-0.103,
DHX16 C486 (UniProt O60231),-0.19,-0.0476,,
DENND5B C733 (UniProt Q6ZUT9),0.0954,1.39,,
DNTTIP2 C618 (UniProt Q5QJE6),0.616,-0.444,-0.467,0.339
DOCK7 C388 (UniProt Q96N67),-0.248,-0.13,,

# A portion taken from the entries so far:
Target,log2 mean competition ratio ([1]; 50 µM),log2 mean competition ratio ([1]; 200 µM),log2 mean competition ratio ([2]; 200 µM),log2 mean competition ratio ([2]; 50 µM)
DIDO1 C498 (UniProt Q9BTC0),-0.0718,-0.209,,
DICER1 C1553 (UniProt Q9UPY3),-0.131,0.0545,,
